Publication PMC8890623
Residue numbers refer to the chain shown, from its start. Results are given in words; binding and its absence hold for the method and conditions named. Binding seen in cells or lysates may run through a third protein. Some results given as binding are weak or reduced against the parent protein; the word gives no strength. Sequences can lack the tags named with a protein.

Tests used:
Assay in all cases: co-IP; vtc4Δ yeast whole cell lysates; 3XFLAG-tagged Top1 captured on anti-Flag M2 agarose beads, 1 hr at 4°C; 50 mM Tris pH 8, 150 mM NaCl, 7 mM EDTA, 5 mM DTT; washes with 0.75% Triton X-100; eluted with 3X-FLAG peptide; blots probed with αFLAG or αHA
[1] = molecular target: T1, yeast Topoisomerase 1 S733E duplex DNA binding mutant, C-terminally 3XFLAG-tagged (S. cerevisiae) (UniProt P04786)
T1 sequence: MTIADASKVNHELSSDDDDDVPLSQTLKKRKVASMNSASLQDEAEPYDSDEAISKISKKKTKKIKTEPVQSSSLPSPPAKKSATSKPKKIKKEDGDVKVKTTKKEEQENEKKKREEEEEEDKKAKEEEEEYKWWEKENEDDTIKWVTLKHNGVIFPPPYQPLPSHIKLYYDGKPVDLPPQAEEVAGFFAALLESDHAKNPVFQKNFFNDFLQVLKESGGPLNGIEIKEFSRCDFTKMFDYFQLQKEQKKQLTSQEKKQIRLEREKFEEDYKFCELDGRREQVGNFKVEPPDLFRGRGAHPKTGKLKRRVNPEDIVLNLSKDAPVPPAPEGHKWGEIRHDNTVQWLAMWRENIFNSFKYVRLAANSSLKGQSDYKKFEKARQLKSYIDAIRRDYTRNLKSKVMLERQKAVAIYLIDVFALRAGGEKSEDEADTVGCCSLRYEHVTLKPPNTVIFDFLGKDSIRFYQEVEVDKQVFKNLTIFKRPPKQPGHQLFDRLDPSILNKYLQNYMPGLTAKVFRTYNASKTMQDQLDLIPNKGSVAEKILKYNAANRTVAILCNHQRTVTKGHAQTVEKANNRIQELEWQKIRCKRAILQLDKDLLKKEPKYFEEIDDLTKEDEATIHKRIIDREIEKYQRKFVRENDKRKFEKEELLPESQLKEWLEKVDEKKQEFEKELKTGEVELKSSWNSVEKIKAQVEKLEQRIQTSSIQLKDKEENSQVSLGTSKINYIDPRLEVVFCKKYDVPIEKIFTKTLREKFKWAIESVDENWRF

[2] = molecular target: T2, yeast Topoisomerase 1 Y727F catalytic mutant, C-terminally 3XFLAG-tagged (S. cerevisiae) (UniProt P04786)
T2 sequence: T1 sequence with Y727F, E733S

[3] = molecular target: T3, yeast Topoisomerase 1 Y740Stop truncation mutant, C-terminally 3XFLAG-tagged (S. cerevisiae) (UniProt P04786)
T3 sequence: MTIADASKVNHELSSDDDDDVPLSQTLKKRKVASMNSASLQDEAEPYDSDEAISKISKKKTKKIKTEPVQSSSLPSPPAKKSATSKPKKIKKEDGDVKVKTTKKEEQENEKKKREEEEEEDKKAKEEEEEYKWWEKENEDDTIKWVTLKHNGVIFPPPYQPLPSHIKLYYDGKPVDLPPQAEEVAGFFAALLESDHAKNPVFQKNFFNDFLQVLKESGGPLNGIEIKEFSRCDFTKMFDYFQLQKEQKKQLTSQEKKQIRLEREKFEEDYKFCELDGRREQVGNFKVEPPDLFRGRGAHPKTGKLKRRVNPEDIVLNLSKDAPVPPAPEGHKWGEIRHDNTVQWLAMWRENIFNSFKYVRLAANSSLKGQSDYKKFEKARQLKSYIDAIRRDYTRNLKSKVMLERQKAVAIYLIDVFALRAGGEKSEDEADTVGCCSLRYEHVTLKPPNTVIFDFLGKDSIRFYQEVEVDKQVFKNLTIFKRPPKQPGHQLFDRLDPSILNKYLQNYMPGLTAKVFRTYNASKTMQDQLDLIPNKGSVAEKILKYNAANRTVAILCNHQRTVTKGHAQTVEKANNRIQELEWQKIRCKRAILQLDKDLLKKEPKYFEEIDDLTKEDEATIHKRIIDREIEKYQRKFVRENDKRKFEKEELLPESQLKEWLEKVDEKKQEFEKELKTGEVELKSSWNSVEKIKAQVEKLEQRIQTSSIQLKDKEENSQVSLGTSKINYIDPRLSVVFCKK

- binding [1]: binds
- binding [2]: binds
- binding [3]: binds
B1: Nsr1ΔRGG (Nsr1 amino acid residues 1-350), C-terminally 6XHA-tagged (domain or fragment, UniProt P27476 1-350)
chain: MAKTTKVKGNKKEVKASKQAKEEKAKAVSSSSSESSSSSSSSSESESESESESESSSSSSSSDSESSSSSSSDSESEAETKKEESKDSSSSSSDSSSDEEEEEEKEETKKEESKESSSSDSSSSSSSDSESEKEESNDKKRKSEDAEEEEDEESSNKKQKNEETEEPATIFVGRLSWSIDDEWLKKEFEHIGGVIGARVIYERGTDRSRGYGYVDFENKSYAEKAIQEMQGKEIDGRPINCDMSTSKPAGNNDRAKKFGDTPSEPSDTLFLGNLSFNADRDAIFELFAKHGEVVSVRIPTHPETEQPKGFGYVQFSNMEDAKKALDALQGEYIDNRPVRLDFSSPRPNND
